These are yes or no findings as the source states them, for the method shown. Binding seen in cells or lysates may run through a third protein. Some binding calls cover weakened binding; strength is not graded here.

Amino acid sequences for entries named in this document (tags omitted).
UniProt Q9R0L6: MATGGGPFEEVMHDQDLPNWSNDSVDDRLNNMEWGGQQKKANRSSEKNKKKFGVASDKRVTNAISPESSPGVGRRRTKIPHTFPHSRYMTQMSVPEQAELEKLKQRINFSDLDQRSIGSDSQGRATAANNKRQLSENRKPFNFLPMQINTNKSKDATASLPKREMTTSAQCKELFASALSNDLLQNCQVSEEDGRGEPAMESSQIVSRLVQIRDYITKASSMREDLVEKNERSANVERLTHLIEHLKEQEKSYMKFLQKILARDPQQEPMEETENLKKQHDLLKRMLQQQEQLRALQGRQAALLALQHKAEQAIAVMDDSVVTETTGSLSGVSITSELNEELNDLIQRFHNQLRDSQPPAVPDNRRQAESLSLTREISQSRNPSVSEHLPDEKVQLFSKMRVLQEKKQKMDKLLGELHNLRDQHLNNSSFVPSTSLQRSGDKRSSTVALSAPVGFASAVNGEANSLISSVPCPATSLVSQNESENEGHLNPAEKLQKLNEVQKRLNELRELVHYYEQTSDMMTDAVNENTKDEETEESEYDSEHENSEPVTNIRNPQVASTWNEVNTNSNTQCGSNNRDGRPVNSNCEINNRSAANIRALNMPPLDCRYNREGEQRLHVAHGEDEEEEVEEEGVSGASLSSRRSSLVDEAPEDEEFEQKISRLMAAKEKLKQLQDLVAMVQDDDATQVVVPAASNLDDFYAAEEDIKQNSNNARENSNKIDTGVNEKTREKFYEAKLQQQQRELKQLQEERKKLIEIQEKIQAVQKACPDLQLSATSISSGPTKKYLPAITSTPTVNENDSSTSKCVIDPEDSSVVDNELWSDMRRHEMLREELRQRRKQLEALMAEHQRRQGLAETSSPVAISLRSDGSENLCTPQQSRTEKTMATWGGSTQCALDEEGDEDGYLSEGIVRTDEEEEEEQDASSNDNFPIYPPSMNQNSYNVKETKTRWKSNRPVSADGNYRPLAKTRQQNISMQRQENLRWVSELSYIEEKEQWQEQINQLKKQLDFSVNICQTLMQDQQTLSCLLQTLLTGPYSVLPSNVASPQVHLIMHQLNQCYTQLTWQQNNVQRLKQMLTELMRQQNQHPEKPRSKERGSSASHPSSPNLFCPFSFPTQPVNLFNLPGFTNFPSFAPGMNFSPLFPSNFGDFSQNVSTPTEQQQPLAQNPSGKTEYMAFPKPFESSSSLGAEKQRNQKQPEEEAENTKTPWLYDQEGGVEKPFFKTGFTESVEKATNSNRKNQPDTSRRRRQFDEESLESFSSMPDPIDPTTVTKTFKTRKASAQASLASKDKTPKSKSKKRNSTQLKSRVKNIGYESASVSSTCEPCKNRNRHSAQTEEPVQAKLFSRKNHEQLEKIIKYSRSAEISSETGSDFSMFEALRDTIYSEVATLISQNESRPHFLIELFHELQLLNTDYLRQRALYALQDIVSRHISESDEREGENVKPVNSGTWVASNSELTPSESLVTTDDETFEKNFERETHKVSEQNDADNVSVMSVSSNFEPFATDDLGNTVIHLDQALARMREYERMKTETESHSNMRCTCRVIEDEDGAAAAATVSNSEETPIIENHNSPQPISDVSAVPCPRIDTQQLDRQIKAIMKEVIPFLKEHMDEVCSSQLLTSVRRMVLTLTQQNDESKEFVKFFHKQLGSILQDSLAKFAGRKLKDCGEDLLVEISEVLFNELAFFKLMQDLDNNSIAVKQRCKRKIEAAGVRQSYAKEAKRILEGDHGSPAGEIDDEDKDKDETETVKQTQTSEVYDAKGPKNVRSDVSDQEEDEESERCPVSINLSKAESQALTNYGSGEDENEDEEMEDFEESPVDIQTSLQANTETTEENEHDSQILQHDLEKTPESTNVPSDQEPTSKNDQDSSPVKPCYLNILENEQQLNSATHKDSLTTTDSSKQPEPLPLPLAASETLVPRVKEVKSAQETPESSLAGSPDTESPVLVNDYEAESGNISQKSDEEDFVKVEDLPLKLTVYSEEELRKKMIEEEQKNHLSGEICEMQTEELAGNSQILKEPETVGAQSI

The target in the assay is PCM1, endogenous in mouse germ cell lines (mouse (endogenous in GC1 and GC2)) (UniProt Q9R0L6). Nature of the assay: co-IP; GC1 and GC2 cell lysates incubated with anti-PIBF1 antibody, anti-PCM1 antibody or rabbit IgG; endogenous USO1 detected in the precipitate.

B1: USO1 vesicle transport factor (USO1), endogenous in mouse germ cell lines (protein, UniProt Q9Z1Z0 1-959)
chain: MNFLRGVMGGQSAGPQHTEAETIQKLCDRVASSTLLDDRRNAVRALKSLSKKYRLEVGIQAMEHLIHVLQTDRSDSEIIAYALDTLYNIISNDEEEELEENSTRQSEDLGSQFTEIFIKQPENVTLLLSLLEEFDFHVRWPGVRLLTSLLKQLGPPVQQIILVSPMGVSRLMDLLADSREIIRNDGVLLLQALTRSNGAIQKIVAFENAFERLLDIITEEGNSDGGIVVEDCLILLQNLLKTNNSNQNFFKEGSYIQRMKPWFEVGEENSGWSAQKVTNLHLMLQLVRVLVSPTNPPGATSSCQKAMFQCGLLQQLCTILMATGIPADILTETINTVSEVIRGCQVNQDYFASVNAPSNPPRPAIVVLLMSMVNERQPFVLRCAVLYCFQCFLYKNEKGQGEIVATLLPSTIDATGNSVSAGQLLCGGLFSTDSLSNWCAAVALAHALQGNATQKEQLLRVQLATSIGNPPVSLLQQCTNILSQGSKIQTRVGLLMLLCTWLSNCPIAVTHFLHNSANVPFLTGQIAENLGEEEQLVQGLCALLLGISIYFNDNSLENYTKEKLKQLIEKRIGKENFIEKLGFISKHELYSRASQKPQPNFPSPEYMIFDHEFTKLVKELEGVITKAIYKSSEEDKKEEEVKKTLEQHDNIVTHYKNMIREQDLQLEELKQQVSTLKCQNEQLQTAVTQQASQIQQHKDQYNLLKVQLGKDNHHQGSHGDGAQVNGIQPEEISRLREEIEELKSQQALLQGQLAEKDSLIENLKSSQASGMSEQASATCPPRDPEQVAELKQELTALKSQLCSQSLEITRLQTENCELLQRAETLAKSVPVEGESEHVSAAKTTDVEGRLSALLQETKELKNEIKALSEERTAIQKQLDSSNSTIAILQTEKDKLDLEVTDSKKEQDDLLVLLADQDQKILSLKSKLKDLGHPVEEEDESGDQEDDDDEIDDGDKDQDI
For B1, the binding entry is listed as “binds”.

(Values after PMC12072129.)
